From PMC5074515 (PLoS ONE, 2016)
Counter-ions that a name gives are not always drawn. Like-named read-outs stand apart in the source and are kept apart here.

The chains behind the UniProt entries cited, without tags or fusion partners. Where a name states a change or a piece, a line headed by the entry shows the natural chain unless it says otherwise.
UniProt P9WN95: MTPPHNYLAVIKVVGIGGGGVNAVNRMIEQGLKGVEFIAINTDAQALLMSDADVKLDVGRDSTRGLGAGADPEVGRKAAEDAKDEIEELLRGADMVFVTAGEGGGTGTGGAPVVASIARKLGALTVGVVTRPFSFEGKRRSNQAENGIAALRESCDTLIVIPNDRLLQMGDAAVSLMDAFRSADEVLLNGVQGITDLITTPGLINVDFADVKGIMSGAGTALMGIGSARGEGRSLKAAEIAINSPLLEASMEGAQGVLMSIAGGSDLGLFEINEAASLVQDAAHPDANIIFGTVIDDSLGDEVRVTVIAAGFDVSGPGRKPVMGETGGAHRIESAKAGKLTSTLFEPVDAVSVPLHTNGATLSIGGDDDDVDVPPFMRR

Molecular target: Mtb FtsZ (Mycobacterium tuberculosis, UniProt P9WN95)
Experiment: biochemical

SMILES | IC50 [µM] | IC50 (mean ± standard deviation, at least three times per assay, NA = not active up to 100 μM, read-out: Mtb FtsZ Polymerization IC50) [µM]
CC/C(=C(\c1ccccc1)c1ccc(OCCN(C)C)cc1)c1ccccc1 [Compound 11, Tamoxifen citrate] | 40.6 ± 17.9 | –
COc1cc2c(c(OC)c1OC)-c1ccc(OC)c(=O)cc1[C@@H](NC(C)=O)CC2 [Compound 1, Colchicine] | – | 104 ± 2
